Measurements reported in PubChem BioAssay AID1259405 (NCATS, 2018).

Screen: 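Mouse-designed siRNAs used to find CHO productivity engineering targets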 (primary screen)
Cell system: Chinese hamster CHO-K1 ovary cells with stable secreted eGFP expression
Knock-down reagent: single siRNA against mouse genes, 0.8 pmol siRNA per well (2 µl of 400 nM stock)
Duration: 3 days
Detection: 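Percent of the per-plate non-targeting control median for intracellular GFP per well by laser scanning cytometry and for cell viability by ATP luminescence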
Scale: GFP, % of control: higher = more GFP per well, higher productivity; viability (ATP), % of control: higher = more viable cells (more ATP)
Active means: 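a knock-down is called active if GFP reaches 120% or more of non-targeting control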
Here is an unselected part of about 50,000 reagents. About 4,000 of all reagents (8%) count as active. 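Mouse siRNA library applied to hamster cells; one well for each siRNA.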 Entries without a mark were called inactive. The numbers tell different reagents against one gene apart.

| Gene | siRNA no. | GFP, % of control | viability (ATP), % of control |
| --- | --- | --- | --- |
| Btg1 (BTG anti-proliferation factor 1) | 1 | 84.4 | 60.1 |
| Btg1 (BTG anti-proliferation factor 1) | 2 | 49.4 | 40.4 |
| Btg1 (BTG anti-proliferation factor 1) | 3 | 104 | 126 |
| Serinc3 (serine incorporator 3) | 1 | 125 (active) | 86.3 |
| Serinc3 (serine incorporator 3) | 2 | 60.9 | 82.4 |
| Serinc3 (serine incorporator 3) | 3 | 63.5 | 66 |
| Mien1 (migration and invasion enhancer 1) | 1 | 94.2 | 78.2 |
| Mien1 (migration and invasion enhancer 1) | 2 | 98.5 | 86.2 |
| Mien1 (migration and invasion enhancer 1) | 3 | 63.1 | 84.8 |
| Akr1c13 (aldo-keto reductase family 1, member C13) | 1 | 35.5 | 42.5 |
| Akr1c13 (aldo-keto reductase family 1, member C13) | 2 | 70.4 | 63.6 |
| Akr1c13 (aldo-keto reductase family 1, member C13) | 3 | 80 | 94.2 |
| Slc48a1 | 1 | 101 | 87.8 |
| Slc48a1 | 2 | 52.1 | 48.6 |
| Slc48a1 | 3 | 77.1 | 72.8 |
| Ngp (neutrophilic granule protein) | 1 | 89.2 | 73.2 |
| Ngp (neutrophilic granule protein) | 2 | 77.3 | 66.4 |
| Ngp (neutrophilic granule protein) | 3 | 83.1 | 100 |
| Clpb (ClpB caseinolytic peptidase B) | 1 | 215 (active) | 109 |
| Clpb (ClpB caseinolytic peptidase B) | 2 | 73.9 | 87.3 |
| Clpb (ClpB caseinolytic peptidase B) | 3 | 79.5 | 85.1 |
| Fam241b (family with sequence similarity 241, member B) | 1 | 112 | 76.7 |
| Fam241b (family with sequence similarity 241, member B) | 2 | 91 | 78.8 |
| Fam241b (family with sequence similarity 241, member B) | 3 | 107 | 99.6 |
| Larp6 (La ribonucleoprotein 6, translational regulator) | 1 | 126 (active) | 83.8 |
| Larp6 (La ribonucleoprotein 6, translational regulator) | 2 | 52.7 | 48.5 |
| Larp6 (La ribonucleoprotein 6, translational regulator) | 3 | 67.9 | 90.3 |
| Mrs2 (MRS2 magnesium transporter) | 1 | 96.2 | 89.3 |
| Mrs2 (MRS2 magnesium transporter) | 2 | 48.6 | 69.9 |
| Mrs2 (MRS2 magnesium transporter) | 3 | 69.3 | 65.8 |
| Rps25 (ribosomal protein S25) | 1 | 123 (active) | 98.3 |
| Rps25 (ribosomal protein S25) | 2 | 178 (active) | 72.7 |
| Rps25 (ribosomal protein S25) | 3 | 56.4 | 75.4 |
| Smarca1 (SNF2 related chromatin remodeling ATPase 1) | 1 | 97.6 | 90.5 |
| Smarca1 (SNF2 related chromatin remodeling ATPase 1) | 2 | 99.9 | 68.5 |
| Smarca1 (SNF2 related chromatin remodeling ATPase 1) | 3 | 111 | 52.6 |
